Measurements as given in doi:10.1101/2021.07.21.453261.
Results are given in words; binding and its absence hold for the method and conditions named. Binding seen in cells or lysates may run through a third protein. A result given as binding can be weak or reduced; the word gives no strength.

Target: TgGRA14 endogenously epitope-tagged at the C-terminus with 6x-HA (ME49Δku80 GRA14-HA6x) (Toxoplasma gondii (ME49))
Experiment: co-IP

Row | Binder | binding
1 | TgGRA1 (protein, UniProt P13403 25-190) AEGGDNQSSAVSDRASLFGLLSGGTGQGLGIGESVDLEMMGNTYRVERPTGNPDLLKIAIKASDGSYSEVGNVNVEEVIDTMKSMQRDEDIFLRALNKGETVEEAIEDVAQAEGLNSEQTLQLEDAVSAVASVVQDEMKVIDDVQQLEKDKQQLKDDIGFLTGERE | binds
2 | TgGRA4 (protein, UniProt Q27002 21-345) GECSFGSHLADMAGLSGRHDKERHQAKKRYYHSMYGNQTPYPYANGQQASPPPQGQLLIIQNPDGSFMIVDQQGVPQVPQAAGGPGSPMNGGYYMPTGVYTAQVVPGTPGHPVQAIPQQPLRTQATATYYHPAAVPPPGPSVFVFTPSSVQPGAEVTPGYSGLQLRQQSQYGYSYPGTTSTPTPPPPASYGYPVFPAFPRLPAFSDSVSVSTEDSGLTGVKDSSSSESTVTPADEAASESEEGDKTSRKSKVKKGILTGLGVAATLAAAAAAAKAVKGFGGTRTSTAPAEAGKTELDDGYRPPPFNPRPSPYAELLKDLERMRKE | binds
